No constants are given. Whether binding was seen depends on the method and setting. For some assays here: In cells and extracts the contact can be indirect. Some entries that bind do so weakly or less than the wild type. For some assays here: Sequences can lack the tags named with a protein. Blank lines part the entries; values can stand above or below the binder they belong to.
Columns and labels:
[1] = biological target: estrogen receptor alpha (ERα), endogenous in MCF-7/CCN1 cells (human (endogenous in MCF-7)) (UniProt P03372); experiment: co-IP; whole cell extracts of MCF-7/CCN1 cells; ERα immunoprecipitated, blotted with anti-ERα and anti-CCN1 antibodies; nonspecific IgG as control
[2] = biological target: recombinant human estrogen receptor alpha (His-tag) (human) (UniProt P03372); experiment: pull-down; purified GST-CCN1 incubated with ERα-His and Ni-NTA His•Bind resin beads; pH 7.35, 150 mM NaCl, 0.5 mM EDTA, 50 mM Tris-HCl, 0.5% NP-40, 4° C, 4 hours; 5 washes; bound proteins blotted; both purified

Protein sequences, listed by entry. Tags and fused reporters are not part of them.
UniProt P03372: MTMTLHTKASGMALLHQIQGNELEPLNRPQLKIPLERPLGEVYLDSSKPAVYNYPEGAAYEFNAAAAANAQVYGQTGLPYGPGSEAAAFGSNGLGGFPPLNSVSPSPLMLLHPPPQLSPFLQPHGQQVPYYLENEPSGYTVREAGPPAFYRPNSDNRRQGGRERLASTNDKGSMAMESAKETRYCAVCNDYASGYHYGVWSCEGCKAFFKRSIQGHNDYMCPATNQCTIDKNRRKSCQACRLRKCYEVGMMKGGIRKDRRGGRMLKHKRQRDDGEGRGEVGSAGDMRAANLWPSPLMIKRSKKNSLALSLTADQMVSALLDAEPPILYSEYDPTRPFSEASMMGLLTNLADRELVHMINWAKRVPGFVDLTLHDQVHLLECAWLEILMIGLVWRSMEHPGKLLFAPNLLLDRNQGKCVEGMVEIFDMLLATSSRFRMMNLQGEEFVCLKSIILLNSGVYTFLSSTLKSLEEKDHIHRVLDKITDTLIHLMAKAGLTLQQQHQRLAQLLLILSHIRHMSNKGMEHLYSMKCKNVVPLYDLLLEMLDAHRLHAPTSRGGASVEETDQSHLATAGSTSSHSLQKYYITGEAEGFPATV

binding [1]: binds
B1: wild-type CCN1 (CYR61), stably overexpressed in MCF-7/CCN1 cells (protein, UniProt O00622 25-381)
chain: TCPAACHCPLEAPKCAPGVGLVRDGCGCCKVCAKQLNEDCSKTQPCDHTKGLECNFGASSTALKGICRAQSEGRPCEYNSRIYQNGESFQPNCKHQCTCIDGAVGCIPLCPQELSLPNLGCPNPRLVKVTGQCCEEWVCDEDSIKDPMEDQDGLLGKELGFDASEVELTRNNELIAVGKGSSLKRLPVFGMEPRILYNPLQGQKCIVQTTSWSQCSKTCGTGISTRVTNDNPECRLVKETRICEVRPCGQPVYSSLKKGKKCSKTKKSPEPVRFTYAGCLSVKKYRPKYCGSCVDGRCCTPQLTRTVKMRFRCEDGETFSKNVMMIQSCKCNYNCPHANEAAFPFYRLFNDIHKFRD

binding [2]: binds
B2: GST-CCN1 fusion protein (protein, UniProt O00622 25-381)
chain: B1 chain

Reference: PMC8876916
